Assay results taken from PubChem BioAssay (NCATS).
Where “and” joins values, the source holds several entries; their conditions need not be identical. Equal values may be shown once. Inconclusive results, whose numbers are uncertain, are shown with a selection of clear calls. For some of these results: Potencies beside an inconclusive call are fits to weak or partial responses and may not hold up. Calls of active or inactive are those of the source. Unless noted, calls follow the shape of the dose curve; as a rule, active = well fitted curve in the direction sought with a large enough effect; inconclusive = small, poorly fitted or top-dose-only effect, or another doubt; inactive = no such curve, though single readings can be large; an effect the other way counts as inactive or inconclusive.

By UniProt entry, the sequences of proteins in these tests, tags left out. Where a name states a change or a piece, a line headed by the entry shows the natural chain unless it says otherwise.
UniProt P04150: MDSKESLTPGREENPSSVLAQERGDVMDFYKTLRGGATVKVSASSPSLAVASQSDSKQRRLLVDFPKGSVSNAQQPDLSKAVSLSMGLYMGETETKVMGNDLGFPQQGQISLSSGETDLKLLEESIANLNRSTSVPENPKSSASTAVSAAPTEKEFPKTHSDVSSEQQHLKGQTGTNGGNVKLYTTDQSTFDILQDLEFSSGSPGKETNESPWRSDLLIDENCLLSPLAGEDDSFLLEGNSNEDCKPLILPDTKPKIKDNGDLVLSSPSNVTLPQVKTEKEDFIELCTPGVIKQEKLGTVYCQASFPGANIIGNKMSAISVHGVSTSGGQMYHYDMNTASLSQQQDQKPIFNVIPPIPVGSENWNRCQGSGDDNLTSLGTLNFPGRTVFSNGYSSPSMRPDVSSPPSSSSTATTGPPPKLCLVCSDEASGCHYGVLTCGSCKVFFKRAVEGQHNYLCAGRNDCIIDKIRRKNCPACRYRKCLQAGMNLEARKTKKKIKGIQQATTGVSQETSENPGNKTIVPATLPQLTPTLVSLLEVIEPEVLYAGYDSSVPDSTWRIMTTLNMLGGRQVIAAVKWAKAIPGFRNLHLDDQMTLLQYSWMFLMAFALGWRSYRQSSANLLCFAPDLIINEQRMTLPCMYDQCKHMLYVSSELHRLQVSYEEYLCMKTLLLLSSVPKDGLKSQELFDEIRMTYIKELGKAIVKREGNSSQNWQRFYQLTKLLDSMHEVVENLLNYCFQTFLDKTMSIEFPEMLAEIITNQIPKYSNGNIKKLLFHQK
UniProt Q07343: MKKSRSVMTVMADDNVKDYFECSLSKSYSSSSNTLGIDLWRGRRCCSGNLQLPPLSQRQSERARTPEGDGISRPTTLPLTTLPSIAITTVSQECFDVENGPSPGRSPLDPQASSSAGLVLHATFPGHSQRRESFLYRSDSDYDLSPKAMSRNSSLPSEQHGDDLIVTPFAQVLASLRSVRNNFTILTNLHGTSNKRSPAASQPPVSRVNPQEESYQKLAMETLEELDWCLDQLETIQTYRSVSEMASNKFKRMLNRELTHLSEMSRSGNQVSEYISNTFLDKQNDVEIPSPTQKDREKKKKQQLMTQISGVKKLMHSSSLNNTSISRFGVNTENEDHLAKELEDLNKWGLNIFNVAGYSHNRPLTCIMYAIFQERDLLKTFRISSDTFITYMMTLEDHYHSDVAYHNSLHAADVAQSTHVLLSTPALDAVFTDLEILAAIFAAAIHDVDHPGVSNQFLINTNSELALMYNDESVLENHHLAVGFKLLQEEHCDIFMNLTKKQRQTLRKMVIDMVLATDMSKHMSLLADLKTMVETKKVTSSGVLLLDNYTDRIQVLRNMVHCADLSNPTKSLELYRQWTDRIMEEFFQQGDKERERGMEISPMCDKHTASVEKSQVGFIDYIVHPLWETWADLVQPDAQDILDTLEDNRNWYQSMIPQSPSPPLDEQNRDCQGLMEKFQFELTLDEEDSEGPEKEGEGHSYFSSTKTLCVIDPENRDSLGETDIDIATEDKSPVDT

Columns and labels:
[1] = Stat Signaling Pathway (AID 446; active = well fitted curve in either direction with a large enough effect, not every such curve was filed as active; inconclusive = small, poorly fitted or top-dose-only effect, or another doubt;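 also: ME-180 cervical cancer cells given 40 pM IL-6 alongside compound; SIE-controlled beta-lactamase reporter measured as 460/530 nm FRET emission ratio; % is scaled to controls: 0 for no effect and ±100 for the full control effect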); conditions: ME-180 SIE beta-lactamase reporter, IL-6 stimulated, 5 h
In short: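 Compound effects on IL-6-induced STAT reporter activity were measured in ME-180 cells. After overnight culture, cells were co-treated with 40 pM IL-6 for 5 hrs before beta-lactamase substrate loading at room temperature.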

[2] = target: Glucocorticoid receptor (Homo sapiens) (UniProt P04150); experiment: GR-EFC Redistribution (AID 451; calls by dose curve; also: potency is read from the fitted curve at half-maximal effect); conditions: CHO-K1 GR-EFC translocation, beta-gal luminescence, 2 h
In short: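 CHO-K1 cells stably expressing nuclear-localized β-gal enzyme acceptor and GR fused C-terminally to the enzyme donor fragment; ligand-driven nuclear translocation restores β-gal by complementation. Compounds titrated up to 46 uM final, 2 h at 37 °C; luminescence read.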

[3] = S16 Schwann cell PMP22 intronic element firefly luciferase assay (AID 624032); also: potency is read from the fitted curve at half-maximal effect; nearly all actives have a fitted effect of over 30% in size
In short: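 Rat S16 Schwann cells stably carrying a PMP22 intronic element-driven Fluc reporter were seeded overnight, then exposed to compounds for 24 h at 37 °C. Luminescence was normalized to PTC124 (positive control) and DMSO (0% activity).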

CP265 = experiment: qHTS profiling for inhibitors of Plasmodium falciparum proliferation (AID 504749); also: nearly all actives have a fitted effect of over 60% in size; also: potency is read from the fitted curve at half-maximal effect;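 as to activity, negative = inhibition: 0% = DMSO vehicle and full inhibition = artemisinin control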; conditions: P. falciparum in erythrocytes, SYBR Green DNA, 72 h; series mostly up to 28.7 µM
In short: (§1)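 Quantitative HTS: compounds pinned into medium, infected erythrocytes added (0.3% parasitemia, 2.5% hematocrit), 72 h culture at 37 C under 5% CO2. Saponin/Triton lysis with SYBR Green I, overnight RT, then fluorescence read.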

DIV14 = experiment: as above; conditions: P. falciparum in erythrocytes, SYBR Green DNA, 72 h; series mostly up to 28.7 µM
In short: as §1

DIV17 = experiment: as above; conditions: P. falciparum in erythrocytes, SYBR Green DNA, 72 h; activity, negative = inhibition: at 28.7 µM (top of the series) unless noted
In short: as §1

P93_24 = experiment: as above; conditions: P. falciparum in erythrocytes, SYBR Green DNA, 72 h; series mostly up to 28.7 µM
In short: as §1

P94_40 = experiment: as above; conditions: P. falciparum in erythrocytes, SYBR Green DNA, 72 h; series mostly up to 28.7 µM
In short: as §1

W2 = experiment: as above; conditions: P. falciparum in erythrocytes, SYBR Green DNA, 72 h; series mostly up to 28.7 µM
In short: as §1

[4] = target: Glucocorticoid receptor (Homo sapiens) (UniProt P04150); experiment: GR-GFP Redistribution (AID 450;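 active = compounds whose dose series gives a full or clear partial fitted curve of increased nuclear translocation; inconclusive = weak partial curve or effect only at the top dose; inactive = no dose-dependent translocation response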; also: potency is read from the fitted curve at half-maximal effect); conditions: U2OS GR-GFP nuclear translocation, laser cytometry, 2 h
[5] = qHTS Assay for Identification of Small Molecule Agonists for Hypoxia Response Element Signaling Pathway (AID 914; active = well fitted activation curve with a large enough effect in the signal ratio, with a control signal flat, not every such curve was filed as active; inconclusive = small, poorly fitted or top-dose-only effect, or effect the other way, or a change in a side signal; the % refers to the signal ratio; also: potency is read from the fitted curve at half-maximal effect); conditions: ME-180 (cervical carcinoma) HRE-bla reporter, beta-lactamase ratio, CoCl2, 17 h; activation: hits give high values
In short: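 A beta-lactamase reporter under hypoxia response element control in ME-180 cells served as the system. Compound titrations plus EC50 CoCl2 ran 17 h at 37 degrees Celsius; AC50 values were fitted from %Activity.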

[6] = target: 3',5'-cyclic-AMP phosphodiesterase 4B (Homo sapiens) (UniProt Q07343); experiment: qHTS Assay for Inhibitors of PDE-IV (AID 607; active = well fitted activation curve with a large enough effect in the main read-out, with a control signal flat, not every such curve was filed as active; inconclusive = small, poorly fitted or top-dose-only effect, or effect the other way, or a change in a side signal; also: potency is read from the fitted curve at half-maximal effect); conditions: HEK293 ACTOne CNG channel cells, membrane potential fluorescence; activation (PDE inhibition): at 22.9 µM (top of the series)
In short: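 ACTOne HEK293 cells carry a modified cAMP-gated CNG channel and express endogenous PDE4; plated 1000 cells/well, compounds up to 22.9 uM final. Membrane-potential dye fluorescence (ex 535/em 590) was read; parental cells received 10 uM forskolin + 100 uM RO 20-1724.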

7G8 = experiment: qHTS profiling for inhibitors of Plasmodium falciparum proliferation (AID 504749); also: nearly all actives have a fitted effect of over 60% in size; also: potency is read from the fitted curve at half-maximal effect;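 as to activity, negative = inhibition: 0% = DMSO vehicle and full inhibition = artemisinin control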; conditions: P. falciparum in erythrocytes, SYBR Green DNA, 72 h; series mostly up to 28.7 µM
In short: as §1

CP191 = experiment: as above; conditions: P. falciparum in erythrocytes, SYBR Green DNA, 72 h; series mostly up to 12.8 µM
In short: as §1

CP217 = experiment: as above; conditions: P. falciparum in erythrocytes, SYBR Green DNA, 72 h; series mostly up to 28.7 µM
In short: as §1

CP262 = experiment: as above; conditions: P. falciparum in erythrocytes, SYBR Green DNA, 72 h; series mostly up to 28.7 µM
In short: as §1

DIV30 = experiment: as above; conditions: P. falciparum in erythrocytes, SYBR Green DNA, 72 h; series mostly up to 28.7 µM
In short: as §1

SC27B = experiment: as above; conditions: P. falciparum in erythrocytes, SYBR Green DNA, 72 h; series mostly up to 28.7 µM
In short: as §1

[7] = at 7.69 µM (top of the series) unless noted

COCC(=O)N1CCC[C@@]2(CCN(C(=O)Nc3ccccc3)C2)C1
inactive: activity, negative = inhibition [1, 7] -3% | Potency [2] > 46 µM

CC(=O)N(CC(O)CN(C(C)=O)c1c(I)c(C(=O)NC[C@@H](O)CO)c(I)c(C(=O)NC[C@@H](O)CO)c1I)c1c(I)c(C(=O)NC[C@@H](O)CO)c(I)c(C(=O)NC[C@@H](O)CO)c1I
inconclusive: Potency [3] 1.55 µM [inhibitor, full curve, poor fit] | Potency (DIV14) 8.09 µM [activator, single point] | Potency (W2) 0.287 µM [inhibitor, partial curve, poor fit]
inactive: activity, negative = inhibition [1, 7] 4.45% [at 17.2 µM] | Potency (CP265) | Potency (DIV17) | Potency (P93_24) | Potency (P94_40)

COC(=O)CC1=NC(=O)CS1
inactive: activity, negative = inhibition [1, 7] 12.3% [at 17.2 µM]

CCNc1ncc2nc(-c3cc(F)cc(F)c3)c(=O)n(Cc3ccc(F)cc3)c2n1
inconclusive: activity, negative = inhibition [1, 7] 48.4% [activator] | Potency [4] 4.21 µM [partial curve]
active: Potency [5] 2 µM

COC(=O)[C@@H]1[C@@H]2C[C@H]3c4[nH]c5ccccc5c4CCN3C[C@@H]2CC[C@@H]1O
inactive: activity, negative = inhibition ([1]; at 7.69 µM (top of the series)) 0.353% | activity, negative = inhibition ([1]; at 17.2 µM (top of the series)) 5.5% and -1.53% and 0.108% | Potency (7G8) | Potency (CP191) | Potency (CP217) | Potency (CP262) | Potency (DIV14) | Potency (DIV30) | Potency (SC27B) | Potency (W2)
inconclusive: Potency [6] 12 µM [activator, partial curve, poor fit] and 19 µM [inhibitor, single point] and 15.1 µM [inhibitor, single point]
